Some of these results come from one statement about several compounds together.
Experiments:
Type in all cases: in vivo
[1] = system: Western Flower Thrips (Fraukliniella occidentalis); test: Test F: control of Western Flower Thrips on Longio Bean plant, contact and/or systemic; conditions: sprayed at 250 ppm, adult thrips, 7 days
[2] = system: potato leafhopper (Empoasca fabae Harris); test: Test D: control of potato leafhopper on Longio bean plant, contact and/or systemic; conditions: sprayed at 250 ppm, adults, 6 days
[3] = system: cotton melon aphid (Aphis gossypii); test: Test E: control of cotton melon aphid on cotton plant, contact and/or systemic; conditions: sprayed at 250 ppm, 6 days
[4] = system: diamondback moth (Plutella xylostella); test: Test A: control of diamondback moth on radish plant, foliar spray; conditions: sprayed at 250 ppm; radish plant with neonate larvae; assessed after 6 days; criterion met by feeding damage <=20% or mortality >=80%
[5] = system: silverleaf whitefly (Bemisia tabaci); test: Test G: control of silverleaf whitefly nymphs on cotton plant; conditions: sprayed at 250 ppm, 2nd and 3rd instar nymphs, 6 days
[6] = system: fall armyworm (Spodoptera frugiperda); test: Test B: control of fall armyworm on corn (maize) plant, foliar spray; conditions: sprayed at 250 ppm; corn plant with 1-day-old larvae; rated as in Test A; criterion met by feeding damage <=20% or mortality >=80%
[7] = system: cat flea (Ctenocephalides felis Bouche); test: Test H: control of cat flea on orally dosed CD-1 mouse; conditions: oral 10 mg/kg, fleas applied 2 hours after dosing, evaluated 48 hours after flea application
Procedure: For evaluating control of the cat flea (Ctenocephalides felis Bouche), a CD-1® mouse (about 30 g, male, obtained from Charles River Laboratories, Wilmington, Mass.) was orally dosed with a test compound in an amount of 10 mg/kg solubilized in propylene glycol/glycerol formal (60:40). Two hours after oral administration of the test compound, approximately 8 to 16 adult fleas were applied to each mouse. The fleas were then evaluated for mortality 48 hours after flea application to the mouse.

[8] = system: green peach aphid (Myzus persicae); test: Test C: control of green peach aphid on radish plant, contact and/or systemic; conditions: sprayed at 250 ppm, 6 days

N#Cc1cc(C2=NOC(c3cc(Cl)cc(Cl)c3)(C(F)(F)F)C2)ccc1-n1cncn1 (racemic) [Compound 42]
≥ 80%: mortality [1] | mortality [2] | mortality [3] | control efficacy (20% or less feeding damage or 80% or more mortality) [4] | control efficacy (mortality) [5] | control efficacy (20% or less feeding damage or 80% or more mortality) [6] | mortality [8]
≥ 50%: flea mortality [7]

NC(=S)c1cc(C2=NOC(c3cc(Cl)cc(Cl)c3)(C(F)(F)F)C2)ccc1-n1cncn1 (racemic) [Compound 65]
≥ 50%: flea mortality [7]
≥ 80%: mortality [1] | mortality [2] | control efficacy (20% or less feeding damage or 80% or more mortality) [4] | control efficacy (20% or less feeding damage or 80% or more mortality) [6] | mortality [8]

N#Cc1cc(C2=NOC(c3cc(Cl)cc(Cl)c3)(C(F)(F)F)C2)ccc1-n1cnc(N)n1 (racemic) [Compound 69]
≥ 50%: flea mortality [7]
≥ 80%: mortality [1] | mortality [2] | mortality [3] | control efficacy (20% or less feeding damage or 80% or more mortality) [4] | control efficacy (20% or less feeding damage or 80% or more mortality) [6] | mortality [8]

FC(F)(F)C1(c2cc(Cl)cc(Cl)c2)CC(c2ccc(-n3cncn3)c(I)c2)=NO1 (racemic) [Compound 76]
≥ 80%: mortality [1] | mortality [2] | mortality [3] | control efficacy (20% or less feeding damage or 80% or more mortality) [4] | control efficacy (mortality) [5] | control efficacy (20% or less feeding damage or 80% or more mortality) [6] | mortality [8]
